Assay results as given in patent publication US10207050B2, “Computer-implemented method for controlling dispensing of a biologically active agent; computer system and software thereof” (SINGAPORE HEALTH SERVICES PTE LTD, priority 2011, dated 2019).

Tested on: nulliparous parturients in early labour
Experiment: Randomized study of labour epidural analgesia maintenance after CSE: PCEA with variable-frequency automated mandatory boluses (vAMB) versus PCEA with basal infusion 5 ml/h (PCEA5)
Format: in vivo

Structure (SMILES): CCCN1CCCC[C@H]1C(=O)Nc1c(C)cccc1C [ropivacaine]
- time-weighted mean hourly consumption of ropivacaine, inclusive of clinician-administered supplemental boluses (Group PCEA5): 11.1 mg
- total amount of ropivacaine used (Group PCEA5): 74.2 mg
- time-weighted mean hourly consumption of ropivacaine, inclusive of clinician-administered supplemental boluses (Group vAMB): 10.0 mg
- total amount of ropivacaine used (Group vAMB): 62.0 mg
